Positions count from the first letter of the chain named. Results are given in words; binding and its absence hold for the method and conditions named. In cells and extracts the contact can be indirect. Some results given as binding are weak or reduced against the parent protein; the word gives no strength. Where a sequence is shown, tags or fusion partners need not be part of it.
Experiments:
Test in all cases: co-IP; HEK-293 cells transfected with SLITRK5 alleles; interaction with purified PTPδ-Fc examined by co-precipitation and immunoblot; only the binder purified
[1] = biological target: T1, HA-tagged SLITRK5 Q118H (pseudo-matched control mutation from the 1000 Genomes database) (human) (UniProt O94991)
T1 sequence: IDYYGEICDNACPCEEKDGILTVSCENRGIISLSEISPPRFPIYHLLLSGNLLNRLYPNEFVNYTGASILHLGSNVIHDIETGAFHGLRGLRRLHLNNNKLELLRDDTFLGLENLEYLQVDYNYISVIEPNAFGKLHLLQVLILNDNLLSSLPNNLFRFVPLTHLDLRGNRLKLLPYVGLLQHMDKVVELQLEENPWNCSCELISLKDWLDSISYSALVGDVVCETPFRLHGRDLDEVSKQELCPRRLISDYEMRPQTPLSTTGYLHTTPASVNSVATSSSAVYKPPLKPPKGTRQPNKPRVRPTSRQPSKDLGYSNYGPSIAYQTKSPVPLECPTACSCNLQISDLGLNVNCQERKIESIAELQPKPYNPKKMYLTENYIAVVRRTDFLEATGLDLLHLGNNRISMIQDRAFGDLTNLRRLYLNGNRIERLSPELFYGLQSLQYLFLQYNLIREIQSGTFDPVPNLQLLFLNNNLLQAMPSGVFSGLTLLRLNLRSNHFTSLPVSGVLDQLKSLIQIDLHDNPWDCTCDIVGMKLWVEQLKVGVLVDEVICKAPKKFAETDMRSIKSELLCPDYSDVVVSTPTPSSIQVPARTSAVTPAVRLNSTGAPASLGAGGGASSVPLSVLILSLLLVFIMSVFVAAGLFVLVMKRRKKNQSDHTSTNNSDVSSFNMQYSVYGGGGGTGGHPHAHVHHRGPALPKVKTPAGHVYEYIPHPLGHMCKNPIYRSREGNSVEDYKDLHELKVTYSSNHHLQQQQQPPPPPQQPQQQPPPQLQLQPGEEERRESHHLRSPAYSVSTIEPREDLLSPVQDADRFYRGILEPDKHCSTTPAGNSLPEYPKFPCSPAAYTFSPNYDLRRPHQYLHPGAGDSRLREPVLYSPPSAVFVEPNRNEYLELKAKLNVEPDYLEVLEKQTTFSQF

[2] = biological target: T2, HA-tagged wild type SLITRK5 (SLIT and NTRK-Like Family, Member 5), ancestral human allele (human) (UniProt O94991)
T2 sequence: T1 sequence with H78Q

[3] = biological target: T3, HA-tagged SLITRK5 G722Δ (rare amino acid deletion from an OCD subject) (human) (UniProt O94991)
T3 sequence: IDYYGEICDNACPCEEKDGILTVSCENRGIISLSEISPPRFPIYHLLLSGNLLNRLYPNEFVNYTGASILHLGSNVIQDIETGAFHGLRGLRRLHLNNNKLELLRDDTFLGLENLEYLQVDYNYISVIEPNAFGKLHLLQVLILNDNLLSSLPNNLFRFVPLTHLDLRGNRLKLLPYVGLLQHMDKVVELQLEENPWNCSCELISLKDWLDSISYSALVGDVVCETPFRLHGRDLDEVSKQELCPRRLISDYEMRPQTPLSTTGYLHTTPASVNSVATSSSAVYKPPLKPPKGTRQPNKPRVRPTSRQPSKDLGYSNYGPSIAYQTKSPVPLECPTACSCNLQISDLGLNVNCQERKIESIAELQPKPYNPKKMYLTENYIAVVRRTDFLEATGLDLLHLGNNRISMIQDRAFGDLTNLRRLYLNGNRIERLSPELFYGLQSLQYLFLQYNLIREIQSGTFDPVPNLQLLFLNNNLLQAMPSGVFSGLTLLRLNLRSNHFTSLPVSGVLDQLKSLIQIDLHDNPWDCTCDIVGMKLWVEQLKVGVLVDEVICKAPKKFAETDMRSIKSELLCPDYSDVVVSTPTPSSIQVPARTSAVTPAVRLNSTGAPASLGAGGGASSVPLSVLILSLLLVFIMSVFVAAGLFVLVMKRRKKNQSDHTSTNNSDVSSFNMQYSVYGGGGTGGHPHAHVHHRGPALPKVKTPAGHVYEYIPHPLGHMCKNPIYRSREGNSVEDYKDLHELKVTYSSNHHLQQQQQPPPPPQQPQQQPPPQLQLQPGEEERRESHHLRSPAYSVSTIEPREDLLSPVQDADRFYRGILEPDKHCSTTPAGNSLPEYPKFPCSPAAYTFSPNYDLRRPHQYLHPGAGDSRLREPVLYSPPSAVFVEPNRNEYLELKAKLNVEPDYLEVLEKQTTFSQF

Measured: binding

B1: soluble PTPδ ectodomain fused to a human immunoglobulin Fc fragment (PTPδ-Fc) (Fc fusion, UniProt P23468 21-1265)
chain: ETPPRFTRTPVDQTGVSGGVASFICQATGDPRPKIVWNKKGKKVSNQRFEVIEFDDGSGSVLRIQPLRTPRDEAIYECVASNNVGEISVSTRLTVLREDQIPRGFPTIDMGPQLKVVERTRTATMLCAASGNPDPEITWFKDFLPVDTSNNNGRIKQLRSESIGGTPIRGALQIEQSEESDQGKYECVATNSAGTRYSAPANLYVRELREVRRVPPRFSIPPTNHEIMPGGSVNITCVAVGSPMPYVKWMLGAEDLTPEDDMPIGRNVLELNDVRQSANYTCVAMSTLGVIEAIAQITVKALPKPPGTPVVTESTATSITLTWDSGNPEPVSYYIIQHKPKNSEELYKEIDGVATTRYSVAGLSPYSDYEFRVVAVNNIGRGPPSEPVLTQTSEQAPSSAPRDVQARMLSSTTILVQWKEPEEPNGQIQGYRVYYTMDPTQHVNNWMKHNVADSQITTIGNLVPQKTYSVKVLAFTSIGDGPLSSDIQVITQTGVPGQPLNFKAEPESETSILLSWTPPRSDTIANYELVYKDGEHGEEQRITIEPGTSYRLQGLKPNSLYYFRLAARSPQGLGASTAEISARTMQSKPSAPPQDISCTSPSSTSILVSWQPPPVEKQNGIITEYSIKYTAVDGEDDKPHEILGIPSDTTKYLLEQLEKWTEYRITVTAHTDVGPGPESLSVLIRTNEDVPSGPPRKVEVEAVNSTSVKVSWRSPVPNKQHGQIRGYQVHYVRMENGEPKGQPMLKDVMLADAQWEFDDTTEHDMIISGLQPETSYSLTVTAYTTKGDGARSKPKLVSTTGAVPGKPRLVINHTQMNTALIQWHPPVDTFGPLQGYRLKFGRKDMEPLTTLEFSEKEDHFTATDIHKGASYVFRLSARNKVGFGEEMVKEISIPEEVPTGFPQNLHSEGTTSTSVQLSWQPPVLAERNGIITKYTLLYRDINIPLLPMEQLIVPADTTMTLTGLKPDTTYDVKVRAHTSKGPGPYSPSVQFRTLPVDQVFAKNFHVKAVMKTSVLLSWEIPENYNSAMPFKILYDDGKMVEEVDGRATQKLIVNLKPEKSYSFVLTNRGNSAGGLQHRVTAKTAPDVLRTKPAFIGKTNLDGMITVQLPEVPANENIKGYYIIIVPLKKSRGKFIKPWESPDEMELDELLKEISRKRRSIRYGREVELKPYIAAHFDVLPTEFTLGDDKHYGGFTNKQLQSGQEYVFFVLAVMEHAESKMYATSPYSDPVVSMDLDPQPITDEEE
binds: all assays above

— publication PMC5234816
